{"source": "patent US20190322643A1", "about": "(Georgia State University Research Foundation, Inc., priority 2016, published 2019)", "type_in_all_cases": "cell-based", "key": {"A549": {"test_system": "A549", "assay": "Cytotoxicity / anti-proliferation assay (CCK-8), A549", "settings": "Homo sapiens, 72 h, CCK-8 kit", "experimental": "(§1) A549, MDA-MB-231, HCT-8, MCF-7, and HEK293 cells were seeded at 8000-10000 cells (100 μl) in white 96-well plates and pre-incubate the plate for 24 h under standard cell culture conditions, respectively. Then the cells were exposed to the different inhibitors with various concentrations for 72 h. Finally, 10 μl of CCK-8 kit solution was added to each well and incubated for 3-4 hours under standard cell culture conditions, and the 96 well plates were measured the absorbance at 450 nm using Perkin-Elmer Wallac Victor ^3V 1420 multi label plate reader (Perkin-Elmer, Wellesley, USA). EC50s were calculated using GraphPad Prizm statistical package with sigmoidal variable slope dose response curve fit.\n(§2) Cell anti-proliferation assays were performed to determine the toxicity of these inhibitors. Several cell lines (MDA-MB-231, MCF-7, A549 and HCT-8) were incubated and then treated with varying concentrations of the inhibitors for 72 h, respectively. […] These compounds were further evaluated against the control cell line HEK293 to test their toxicity with a non-cancerous cell line."}, "MCF-7": {"test_system": "MCF-7", "assay": "Cytotoxicity / anti-proliferation assay (CCK-8), MCF-7", "settings": "Homo sapiens, MCF7; 72 h, CCK-8 kit", "experimental": "as §1, §2"}, "HCT-8": {"test_system": "HCT-8", "assay": "Cytotoxicity / anti-proliferation assay (CCK-8), HCT-8", "settings": "Homo sapiens, 72 h, CCK-8 kit", "experimental": "as §1, §2"}}}
{"smiles": "O=C(CCCCCCC(=O)Nc1ccccc1)NO", "note": "[SAHA, N-hydroxy-N′-phenyl-octanediamide, reference compound]", "values": [{"measurement": "EC50", "setting": "A549", "value": "19.3 ± 1.26", "unit": "µM"}, {"measurement": "EC50", "setting": "MCF-7", "value": "8.12 ± 4.98", "unit": "µM"}, {"measurement": "EC50", "setting": "HCT-8", "value": "< 10", "unit": "µM"}]}
